For at least one entry, the source does not settle the construct or the ends of the probe. The comparison behind a weaker result is the experiment's own reference, which may not be listed here. Where a protein sequence is shown, tags need not be part of it.
Molecular target: T1, QsdR (TetR-family repressor) (Rhodococcus erythropolis R138) (UniProt A0A0C2W9F0)
T1 sequence (looked up): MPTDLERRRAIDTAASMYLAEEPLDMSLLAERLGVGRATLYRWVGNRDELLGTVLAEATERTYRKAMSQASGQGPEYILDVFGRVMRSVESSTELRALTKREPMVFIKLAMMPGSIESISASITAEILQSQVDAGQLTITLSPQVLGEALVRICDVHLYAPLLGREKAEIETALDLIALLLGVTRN
Experiment: EMSA
Settings: homoserine lactone (HSL), ligand/QsdR ratio 0.1-100, free DNA increases with dose; LightShift Chemiluminescent EMSA Kit (Thermo Scientific) as per manufacturer, 20 ul reaction; pH and temperature not stated; recombinant protein; residues 1-186; protein details: His tag (pET19); label: biotin, 5' end; probe letters rebuilt from the primers and the genome

## GGTAGGCATCGGGACATTCTCTCCGGTTGTCCGGTACTGCACAATTTCGGCGGTCGAACAGAGGTGGGCTTCGGGTGGCTCGAGCCTATTGACGAACCAAGCGACGTGAGACACACTAGCTCATTGTCTCATGTTAGTGATGGCGATCACAGTCAGGGGTTCGATCGATGAG (double strand)
  binding result: binds more weakly

From article PMC6262395, “A Rhodococcal Transcriptional Regulatory Mechanism Detects the Common Lactone Ring of AHL Quorum-Sensing Signals and Triggers the Quorum-Quenching Response” (Frontiers in Microbiology, 2018)
